# Taken from: PubChem BioAssay AID1508597 (Cure First, 2020)
# Purpose: 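Knock-downs altering ovarian cancer cell survival with or without PARP inhibitor rucaparib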 (primary screen)
# Cells: human ovarian carcinoma lines grown from tumours: OCI-P5x (papillary serous) and OCI-C5x (clear cell)
# Reagents: siRNA pool against human genes, 1.25 pmol siRNA per well
# Time to read-out: 72 h or 96 h, depending on the cell culture
# Treatment: rucaparib 20 µM (about IC30) or vehicle, present until read-out
# Rucaparib or vehicle: Vehicle
# Cell line: OCI-C5x (clear cell)
# Measurement: 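Luminescent ATP-based viability assay read 72 or 96 h after transfection, depending on culture, given as normalised percent viability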
# Direction: viability, normalised: higher = more viable cells remaining
# Hit rule: 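a well counts as a hit if its normalised viability is under 80 percent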
# Calls: active = viability under 80%; inactive = viability 80% or more
# Shown is a random part of the about 2,100 reagents, in one setting of the screen. 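Calls flag viability under 80% in either arm, not effects specific to rucaparib; the reference for percent is not stated.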 Entries without a mark were called inactive. A reagent listed more than once was tested more than once; the source does not tell the runs apart. Reagent sequences are not shown. Not stated in the record: the 100% reference.
gene symbol,technical replicate,"viability, normalised (%)"
TAF1L,1,64.6 (active)
TAF1L,1,43.4 (active)
TAF1L,2,49.4 (active)
TAF1L,2,55.5 (active)
TAF1L,3,43.2 (active)
TAF1L,3,49.8 (active)
CSNK1E,1,69.8 (active)
CSNK1E,1,65.7 (active)
CSNK1E,1,57.2 (active)
CSNK1E,2,59.3 (active)
CSNK1E,2,40.9 (active)
CSNK1E,2,59.7 (active)
CSNK1E,3,64.9 (active)
CSNK1E,3,59.7 (active)
CSNK1E,3,35.6 (active)
INSRR,1,56.8 (active)
INSRR,2,42.4 (active)
INSRR,3,53.5 (active)
SNCA,1,46.6 (active)
SNCA,2,47.2 (active)
SNCA,3,43.2 (active)

Records above whose target name begins with S or s:
gene symbol,technical replicate,"viability, normalised (%)"
SNCA,1,46.6 (active)
SNCA,2,47.2 (active)
SNCA,3,43.2 (active)

Further records:
gene symbol,technical replicate,"viability, normalised (%)"
CNOT12,1,41.2 (active)
CNOT12,2,29 (active)
CNOT12,3,32.1 (active)
BAHD1,1,32.8 (active)
BAHD1,2,47.2 (active)
BAHD1,3,44 (active)
XRCC4,1,52.1 (active)
XRCC4,2,68.4 (active)
XRCC4,3,57.5 (active)
DGKH,1,51.7 (active)
DGKH,2,51.2 (active)
DGKH,3,69.8 (active)
NPR1,1,80.3
NPR1,2,47.4 (active)
NPR1,3,71.3 (active)
NR4A2,1,24.7 (active)
NR4A2,2,34 (active)
NR4A2,3,40.9 (active)
PHF20L1,1,43.3 (active)
PHF20L1,2,48.4 (active)
PHF20L1,3,41.5 (active)
PARP8,1,28.9 (active)
PARP8,2,36.6 (active)
PARP8,3,33.2 (active)
NOG,1,31.6 (active)
NOG,2,33.2 (active)
NOG,3,38.8 (active)
FGR,1,51.7 (active)
FGR,2,53.6 (active)
FGR,3,54.8 (active)
MAD1L1,1,31 (active)
MAD1L1,2,34 (active)
MAD1L1,3,50.2 (active)
HP1BP3,1,43 (active)
HP1BP3,2,54.5 (active)
HP1BP3,3,53.4 (active)
